# Measurements as given in paper PMC3510509.
# What was measured:
# [1] = tested on: DNA gyrase holoenzyme (MsGyr) (Mycobacterium smegmatis); assay: EMSA; details: second DNA, 240 bp complex unaffected, EMSA: 35 mM Tris-HCl pH 7.5, 1 mM spermidine, 25 mM K-glutamate, 90 ug/ml tRNA, 1.4 mM ATP, 50 ug/ml BSA, room temp (25 C), 1 nM DNA, recombinant protein, label: 32P 5'-end
# [2] = molecular target: GyrB (MsGyrB) (Mycobacterium smegmatis) (UniProt P0C559); assay: EMSA; details: 200 and 400 nM, beside R321A; EMSA: 35 mM Tris-HCl pH 7.5, 1 mM spermidine, 25 mM K-glutamate, 90 ug/ml tRNA, 1.4 mM ATP, 50 ug/ml BSA, room temp (25 C), 1 nM DNA; recombinant protein; label: 32P 5'-end
# [3] = molecular target: GyrB (MsGyrB) (Mycobacterium smegmatis) (UniProt P0C559); assay: filter binding; details: pre-incubated with 2 mM AMPPNP; filter binding: same mix on ice; recombinant protein; label: 32P 5'-end
# [4] = molecular target: GyrB R321A (Mycobacterium smegmatis) (UniProt P0C559); assay: filter binding; details: data not shown, DNA presumed 72 bp; filter binding: same mix on ice; recombinant protein; label: 32P 5'-end
# [5] = tested on: Topoisomerase IV holoenzyme (Escherichia coli); assay: pull-down; details: 200 nM, with 240 bp DNA; recombinant protein; label: biotin on one strand, 32P on complement
Sequence,binding result ([1]; enzyme pre-bound to 240 bp DNA with 2 ug/ml moxifloxacin),"binding result ([1]; enzyme pre-bound to 240 bp DNA, no moxifloxacin)",binding result [2],binding result [3],binding result [4],binding result [5]
ACTCTAGAGGATCCCCGGTTGGACTAAGTCCCCAGGCCCCTTAGCCACCACAACGTGGGTACCGAGCTCGAA (double strand) [DNA II (72 bp)],no binding,no binding,binds,binds more weakly,binds more weakly,
ACTCTAGAGGATCCCCGGTTGGACTAAGTCCCCAGGCCCCTTAGCCACCACAACGTGGGTACCGAGCTCGAA (double strand) [biotinylated 72 bp DNA],,,,,,binds

# The exact form of at least one protein or probe is not confirmed. For part of these data: A negative result means that nothing was seen under these conditions. For part of these data: Weaker means in comparison with the reference protein, sequence or condition of that experiment. For part of these data: At least one verdict rests on a figure or table, not on a statement of the authors.
